Results are given in words; binding and its absence hold for the method and conditions named. Binding seen in cells or lysates may run through a third protein. Some entries that bind do so weakly or less than the wild type. For some assays here: Where a sequence is shown, tags or fusion partners need not be part of it.
T1: ZNF598 (co-IP of Fig. S6b) (UniProt Q86UK7)
T1 sequence: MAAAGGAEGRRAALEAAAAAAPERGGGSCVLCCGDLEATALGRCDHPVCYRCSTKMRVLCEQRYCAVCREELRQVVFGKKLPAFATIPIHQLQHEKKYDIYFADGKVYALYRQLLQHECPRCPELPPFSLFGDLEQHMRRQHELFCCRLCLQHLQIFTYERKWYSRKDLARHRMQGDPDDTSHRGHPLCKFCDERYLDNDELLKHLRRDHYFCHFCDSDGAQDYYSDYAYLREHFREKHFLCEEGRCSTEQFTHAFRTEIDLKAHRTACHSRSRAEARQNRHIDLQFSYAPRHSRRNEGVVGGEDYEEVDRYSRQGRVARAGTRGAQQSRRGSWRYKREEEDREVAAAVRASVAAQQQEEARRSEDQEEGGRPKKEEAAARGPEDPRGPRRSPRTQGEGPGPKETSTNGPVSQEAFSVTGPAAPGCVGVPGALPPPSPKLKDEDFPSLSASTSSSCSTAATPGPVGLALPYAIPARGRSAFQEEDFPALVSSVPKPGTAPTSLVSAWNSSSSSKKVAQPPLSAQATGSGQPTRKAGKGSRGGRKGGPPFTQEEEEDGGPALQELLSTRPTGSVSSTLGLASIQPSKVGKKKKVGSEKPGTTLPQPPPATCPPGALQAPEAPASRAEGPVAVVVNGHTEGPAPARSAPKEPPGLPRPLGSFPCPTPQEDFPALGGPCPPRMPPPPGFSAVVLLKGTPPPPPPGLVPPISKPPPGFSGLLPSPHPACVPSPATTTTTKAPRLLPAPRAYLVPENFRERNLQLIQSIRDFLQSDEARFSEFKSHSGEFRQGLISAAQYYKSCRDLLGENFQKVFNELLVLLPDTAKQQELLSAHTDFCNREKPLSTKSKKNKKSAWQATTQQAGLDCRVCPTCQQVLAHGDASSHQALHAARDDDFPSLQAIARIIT


How the values were obtained:
[1] = biological target: ZNF598 (co-transfected as GFP-ZNF598 and ZNF598-FLAG) (UniProt Q86UK7); experiment: co-IP; cells co-transfected with GFP-ZNF598 and ZNF598-FLAG; immunoprecipitation and Western blot (Fig. 6b)
[2] = biological target: T1, ZNF598 (co-IP of Fig. S6b); experiment: co-IP; co-IP of CNOT4 and ZNF598 (Fig. S6b); bait and tags not given

Row | binding [1] | binding [2] | Binder
1 | binds | – | ZNF598 (co-transfected as GFP-ZNF598 and ZNF598-FLAG) (enzyme, UniProt Q86UK7 1-904) MAAAGGAEGRRAALEAAAAAAPERGGGSCVLCCGDLEATALGRCDHPVCYRCSTKMRVLCEQRYCAVCREELRQVVFGKKLPAFATIPIHQLQHEKKYDIYFADGKVYALYRQLLQHECPRCPELPPFSLFGDLEQHMRRQHELFCCRLCLQHLQIFTYERKWYSRKDLARHRMQGDPDDTSHRGHPLCKFCDERYLDNDELLKHLRRDHYFCHFCDSDGAQDYYSDYAYLREHFREKHFLCEEGRCSTEQFTHAFRTEIDLKAHRTACHSRSRAEARQNRHIDLQFSYAPRHSRRNEGVVGGEDYEEVDRYSRQGRVARAGTRGAQQSRRGSWRYKREEEDREVAAAVRASVAAQQQEEARRSEDQEEGGRPKKEEAAARGPEDPRGPRRSPRTQGEGPGPKETSTNGPVSQEAFSVTGPAAPGCVGVPGALPPPSPKLKDEDFPSLSASTSSSCSTAATPGPVGLALPYAIPARGRSAFQEEDFPALVSSVPKPGTAPTSLVSAWNSSSSSKKVAQPPLSAQATGSGQPTRKAGKGSRGGRKGGPPFTQEEEEDGGPALQELLSTRPTGSVSSTLGLASIQPSKVGKKKKVGSEKPGTTLPQPPPATCPPGALQAPEAPASRAEGPVAVVVNGHTEGPAPARSAPKEPPGLPRPLGSFPCPTPQEDFPALGGPCPPRMPPPPGFSAVVLLKGTPPPPPPGLVPPISKPPPGFSGLLPSPHPACVPSPATTTTTKAPRLLPAPRAYLVPENFRERNLQLIQSIRDFLQSDEARFSEFKSHSGEFRQGLISAAQYYKSCRDLLGENFQKVFNELLVLLPDTAKQQELLSAHTDFCNREKPLSTKSKKNKKSAWQATTQQAGLDCRVCPTCQQVLAHGDASSHQALHAARDDDFPSLQAIARIIT
2 | – | binds | CNOT4 (co-IP of Fig. S6b) (enzyme, UniProt O95628 1-575) MSRSPDAKEDPVECPLCMEPLEIDDINFFPCTCGYQICRFCWHRIRTDENGLCPACRKPYPEDPAVYKPLSQEELQRIKNEKKQKQNERKQKISENRKHLASVRVVQKNLVFVVGLSQRLADPEVLKRPEYFGKFGKIHKVVINNSTSYAGSQGPSASAYVTYIRSEDALRAIQCVNNVVVDGRTLKASLGTTKYCSYFLKNMQCPKPDCMYLHELGDEAASFTKEEMQAGKHQEYEQKLLQELYKLNPNFLQLSTGSVDKNKNKVTPLQRYDTPIDKPSDSLSIGNGDNSQQISNSDTPSPPPGLSKSNPVIPISSSNHSARSPFEGAVTESQSLFSDNFRHPNPIPSGLPPFPSSPQTSSDWPTAPEPQSLFTSETIPVSSSTDWQAAFGFGSSKQPEDDLGFDPFDVTRKALADLIEKELSVQDQPSLSPTSLQNSSSHTTTAKGPGSGFLHPAAATNANSLNSTFSVLPQRFPQFQQHRAVYNSFSFPGQAARYPWMAFPRNSIMHLNHTANPTSNSNFLDLNLPPQHNTGLGGIPVAGEEEVKVSTMPLSTSSHSLQQGQQPTSLHTTVA
